Patent US20140378424A1, “ESTROGEN RECEPTOR MODULATORS FOR REDUCING BODY WEIGHT” (RosScreening, Inc., priority 2011, published 2014)
At least one compound was matched to its structure with a doubt left.

Assay: Example 4: 8 week weight loss experiment in obese mice, compounds via drinking water
Assay type: in vivo, Male C57BL6/J mice
Conditions: obese mice on high-fat diet, 8 weeks, most compounds 0.5 and 2.5 mg/kg/day, hexestrol 0.125 to 2 mg/kg/day
Procedure: An 8 week experiment was performed to investigate the ability of various estrogen modulating compounds to induce weight loss in obese mice. Male C57BL6/J mice were placed on a high fat diet for approximately 12 weeks prior to the study and initiated in the experiment at 18 weeks of age. Obese mice were allocated into cohorts of 6 mice per compound and housed at a density of 3 per cage. Over 8 weeks, mice were placed on a high-fat diet ad libitum and compounds were provided via drinking water. Most compounds were assigned to two treatment groups with doses of 0.5 mg/kg/day and 2.5 mg/kg/day. Hexestrol was assigned to 5 treatment groups ranging between 0.125 mg/kg/day and 2 mg/kg/day. Weight measurements of each mouse were taken once per week over 8 weeks.

C[C@]12CC[C@@H]3c4ccc(O)cc4CC[C@H]3[C@@H]1CCC2=O [estrone]
body weight in comparison to the control group: significant reduction
